The values that follow come from article PMC6363647.

The chains behind the UniProt entries cited, without tags or fusion partners.
UniProt O08788: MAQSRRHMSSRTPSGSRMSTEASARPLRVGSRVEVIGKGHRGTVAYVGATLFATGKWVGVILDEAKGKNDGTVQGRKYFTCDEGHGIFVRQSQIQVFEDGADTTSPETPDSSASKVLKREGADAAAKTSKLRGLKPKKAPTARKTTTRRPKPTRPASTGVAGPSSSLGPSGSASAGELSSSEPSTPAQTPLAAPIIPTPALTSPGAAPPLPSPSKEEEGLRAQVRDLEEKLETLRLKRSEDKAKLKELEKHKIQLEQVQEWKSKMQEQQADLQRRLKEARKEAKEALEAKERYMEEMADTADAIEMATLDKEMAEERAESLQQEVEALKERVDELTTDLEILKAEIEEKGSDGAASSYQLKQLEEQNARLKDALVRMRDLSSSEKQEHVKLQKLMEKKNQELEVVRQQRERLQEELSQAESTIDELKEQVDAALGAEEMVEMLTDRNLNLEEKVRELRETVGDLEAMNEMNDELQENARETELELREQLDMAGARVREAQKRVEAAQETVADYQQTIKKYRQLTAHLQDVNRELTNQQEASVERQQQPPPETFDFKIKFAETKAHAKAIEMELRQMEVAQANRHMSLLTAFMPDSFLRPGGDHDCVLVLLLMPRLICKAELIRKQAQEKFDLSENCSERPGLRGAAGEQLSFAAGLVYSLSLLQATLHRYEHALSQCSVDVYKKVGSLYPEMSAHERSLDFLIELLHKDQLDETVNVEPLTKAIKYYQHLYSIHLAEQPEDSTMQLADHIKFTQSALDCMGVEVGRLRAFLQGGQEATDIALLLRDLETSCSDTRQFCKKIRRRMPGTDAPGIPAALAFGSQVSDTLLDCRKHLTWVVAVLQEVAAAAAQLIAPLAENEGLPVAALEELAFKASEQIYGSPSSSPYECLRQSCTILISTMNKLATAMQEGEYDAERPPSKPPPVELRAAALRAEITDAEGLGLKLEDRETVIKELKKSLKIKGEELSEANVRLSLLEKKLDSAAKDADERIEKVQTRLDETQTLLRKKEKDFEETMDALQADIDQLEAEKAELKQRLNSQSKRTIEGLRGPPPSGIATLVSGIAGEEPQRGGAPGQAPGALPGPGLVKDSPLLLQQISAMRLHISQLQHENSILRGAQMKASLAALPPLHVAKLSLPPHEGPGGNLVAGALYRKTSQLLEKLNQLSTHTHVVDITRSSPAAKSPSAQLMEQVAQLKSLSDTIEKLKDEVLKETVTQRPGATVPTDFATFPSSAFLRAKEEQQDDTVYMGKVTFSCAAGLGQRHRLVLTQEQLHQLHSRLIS
UniProt Q8R1Q8: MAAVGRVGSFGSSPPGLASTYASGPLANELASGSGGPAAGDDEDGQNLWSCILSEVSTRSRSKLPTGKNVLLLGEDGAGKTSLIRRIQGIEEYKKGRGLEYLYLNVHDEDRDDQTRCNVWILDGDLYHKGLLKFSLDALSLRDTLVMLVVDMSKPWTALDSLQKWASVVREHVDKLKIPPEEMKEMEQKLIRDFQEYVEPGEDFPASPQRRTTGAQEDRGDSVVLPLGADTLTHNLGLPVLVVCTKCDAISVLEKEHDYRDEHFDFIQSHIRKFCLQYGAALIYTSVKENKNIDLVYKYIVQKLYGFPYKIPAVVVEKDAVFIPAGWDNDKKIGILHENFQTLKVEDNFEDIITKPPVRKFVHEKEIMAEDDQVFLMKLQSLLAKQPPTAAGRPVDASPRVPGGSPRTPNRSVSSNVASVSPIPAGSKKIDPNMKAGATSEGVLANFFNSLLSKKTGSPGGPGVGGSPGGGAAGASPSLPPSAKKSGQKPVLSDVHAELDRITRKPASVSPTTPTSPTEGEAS

For this test, the target named is T1, endogenous SK2 of murine brain (mouse (endogenous in C57/Bl6 mouse brain)) (UniProt Q9JIA7).
T1 sequence: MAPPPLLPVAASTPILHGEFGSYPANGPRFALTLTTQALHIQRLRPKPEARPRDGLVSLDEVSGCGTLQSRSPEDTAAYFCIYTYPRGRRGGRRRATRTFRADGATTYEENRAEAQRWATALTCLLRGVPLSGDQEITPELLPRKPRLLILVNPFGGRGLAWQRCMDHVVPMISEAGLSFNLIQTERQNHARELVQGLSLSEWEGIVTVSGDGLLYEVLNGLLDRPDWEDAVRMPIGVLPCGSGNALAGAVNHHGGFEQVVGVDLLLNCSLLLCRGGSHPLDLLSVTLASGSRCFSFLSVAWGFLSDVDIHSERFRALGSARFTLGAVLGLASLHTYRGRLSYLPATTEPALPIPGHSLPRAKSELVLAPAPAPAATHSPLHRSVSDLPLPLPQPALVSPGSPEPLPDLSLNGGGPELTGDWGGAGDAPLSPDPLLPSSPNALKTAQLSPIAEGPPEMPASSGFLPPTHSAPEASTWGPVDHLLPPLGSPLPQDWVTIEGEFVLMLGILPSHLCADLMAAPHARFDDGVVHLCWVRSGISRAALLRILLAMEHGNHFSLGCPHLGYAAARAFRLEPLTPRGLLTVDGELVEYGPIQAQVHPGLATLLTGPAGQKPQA
As to the kind of experiment: co-IP; endogenous SK2 immunoprecipitated from C57/Bl6 mouse whole brain lysate with anti-SK2 antibodies (ECM Biosciences); blots with anti-IC, anti-LIC1 and anti-dynactin p150.

Results are given in words; binding and its absence hold for the method and conditions named. In cells and extracts the contact can be indirect. Some results given as binding are weak or reduced against the parent protein; the word gives no strength.

In the case of “p150 subunit of the dynactin complex, murine brain (from UniProt O08788 1-1281)”, the binding result is recorded as “binds”.

Consider “dynein light intermediate chain 1 (LIC1) of murine brain (from UniProt Q8R1Q8 1-523)”, for which the binding result was “binds”.
